Values quoted from earlier work as cited in US5964224A, “Method for treating amyotrophic lateral sclerosis and a therapeutic agent therefor” (priority 1997, dated 1999).
For at least one compound, name, drawing or mass did not settle the structure.

Conditions: cited from earlier work

For `C/C1=C2/[N-][C@H]([C@H](CC(N)=O)[C@@]2(C)CCC(=O)NC[C@@H](C)OP(=O)([O-])O[C@H]2[C@@H](O)[C@@H](n3cnc4cc(C)c(C)cc43)O[C@@H]2CO)[C@]2(C)N=C(/C(C)=C3N=C(/C=C4N=C1[C@@H](CCC(N)=O)C\4(C)C)[C@@H](CCC(N)=O)[C@]\3(C)CC(N)=O)[C@@H](CCC(N)=O)[C@]2(C)CC(N)=O.[CH3-].[Co+3]` [methylcobalamin], the “heat and humidity sensitivity” value is listed as “not heat-labile nor sensitive to humidity”.
